Assay results as given in article PMC8915576 (Frontiers in Pain Research, 2021).

System: MOPr-VACC inhibition in dorsal root ganglia (DRG) neurons
Assay: cells
Type: cell-based
Conditions: Mus musculus, DRG neuron, read-out: IC50, VACC inhibition

## CN1CC[C@]23c4c5ccc(O)c4O[C@H]2[C@@H](O)C=C[C@H]3[C@H]1C5 [Morphine, morphine]
  IC50: 688 nM
